Compound in this test: ClCC(=O)N[C@H]1CCCc2ccccc12
Kind of test: log2 mean competition ratio of IA-DTB cysteine labelling (DMSO/compound) (log2 ratio); higher = stronger cysteine engagement by compound. The following applies: treatment time: 4 h, cell line lysate: HEK293T. On the procedure: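 IA-DTB competitive cysteine chemoproteomics in HEK293T RIPA lysate. Lysates were treated with compound 29 or 30 at 50 or 200 µM for 4 h, then IA-DTB (500 µM, 1 h), trypsin-digested, NeutrAvidin-enriched and analysed by diaPASEF. Competition ratio = intensity DMSO / intensity compound (n=4 treated, n=64 DMSO); binding: mean log2 CR ≥ 1 and p ≤ 0.05 plus QC filters. Target is the cysteine site.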

Chains of the proteins cited; added tags and fusions are not shown. Lines headed by an entry give the natural chain unless they say otherwise; changes in a name come on top. Residues count along the entry.
UniProt O95900: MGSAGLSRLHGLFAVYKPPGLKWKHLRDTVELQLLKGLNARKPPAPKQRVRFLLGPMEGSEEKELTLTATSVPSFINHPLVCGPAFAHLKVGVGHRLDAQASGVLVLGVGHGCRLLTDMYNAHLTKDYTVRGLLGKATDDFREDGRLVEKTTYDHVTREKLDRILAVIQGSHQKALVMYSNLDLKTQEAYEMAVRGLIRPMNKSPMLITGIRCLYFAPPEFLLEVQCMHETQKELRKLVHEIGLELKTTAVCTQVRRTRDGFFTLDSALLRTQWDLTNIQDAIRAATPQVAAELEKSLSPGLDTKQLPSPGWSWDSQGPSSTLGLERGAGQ
UniProt Q96AY4: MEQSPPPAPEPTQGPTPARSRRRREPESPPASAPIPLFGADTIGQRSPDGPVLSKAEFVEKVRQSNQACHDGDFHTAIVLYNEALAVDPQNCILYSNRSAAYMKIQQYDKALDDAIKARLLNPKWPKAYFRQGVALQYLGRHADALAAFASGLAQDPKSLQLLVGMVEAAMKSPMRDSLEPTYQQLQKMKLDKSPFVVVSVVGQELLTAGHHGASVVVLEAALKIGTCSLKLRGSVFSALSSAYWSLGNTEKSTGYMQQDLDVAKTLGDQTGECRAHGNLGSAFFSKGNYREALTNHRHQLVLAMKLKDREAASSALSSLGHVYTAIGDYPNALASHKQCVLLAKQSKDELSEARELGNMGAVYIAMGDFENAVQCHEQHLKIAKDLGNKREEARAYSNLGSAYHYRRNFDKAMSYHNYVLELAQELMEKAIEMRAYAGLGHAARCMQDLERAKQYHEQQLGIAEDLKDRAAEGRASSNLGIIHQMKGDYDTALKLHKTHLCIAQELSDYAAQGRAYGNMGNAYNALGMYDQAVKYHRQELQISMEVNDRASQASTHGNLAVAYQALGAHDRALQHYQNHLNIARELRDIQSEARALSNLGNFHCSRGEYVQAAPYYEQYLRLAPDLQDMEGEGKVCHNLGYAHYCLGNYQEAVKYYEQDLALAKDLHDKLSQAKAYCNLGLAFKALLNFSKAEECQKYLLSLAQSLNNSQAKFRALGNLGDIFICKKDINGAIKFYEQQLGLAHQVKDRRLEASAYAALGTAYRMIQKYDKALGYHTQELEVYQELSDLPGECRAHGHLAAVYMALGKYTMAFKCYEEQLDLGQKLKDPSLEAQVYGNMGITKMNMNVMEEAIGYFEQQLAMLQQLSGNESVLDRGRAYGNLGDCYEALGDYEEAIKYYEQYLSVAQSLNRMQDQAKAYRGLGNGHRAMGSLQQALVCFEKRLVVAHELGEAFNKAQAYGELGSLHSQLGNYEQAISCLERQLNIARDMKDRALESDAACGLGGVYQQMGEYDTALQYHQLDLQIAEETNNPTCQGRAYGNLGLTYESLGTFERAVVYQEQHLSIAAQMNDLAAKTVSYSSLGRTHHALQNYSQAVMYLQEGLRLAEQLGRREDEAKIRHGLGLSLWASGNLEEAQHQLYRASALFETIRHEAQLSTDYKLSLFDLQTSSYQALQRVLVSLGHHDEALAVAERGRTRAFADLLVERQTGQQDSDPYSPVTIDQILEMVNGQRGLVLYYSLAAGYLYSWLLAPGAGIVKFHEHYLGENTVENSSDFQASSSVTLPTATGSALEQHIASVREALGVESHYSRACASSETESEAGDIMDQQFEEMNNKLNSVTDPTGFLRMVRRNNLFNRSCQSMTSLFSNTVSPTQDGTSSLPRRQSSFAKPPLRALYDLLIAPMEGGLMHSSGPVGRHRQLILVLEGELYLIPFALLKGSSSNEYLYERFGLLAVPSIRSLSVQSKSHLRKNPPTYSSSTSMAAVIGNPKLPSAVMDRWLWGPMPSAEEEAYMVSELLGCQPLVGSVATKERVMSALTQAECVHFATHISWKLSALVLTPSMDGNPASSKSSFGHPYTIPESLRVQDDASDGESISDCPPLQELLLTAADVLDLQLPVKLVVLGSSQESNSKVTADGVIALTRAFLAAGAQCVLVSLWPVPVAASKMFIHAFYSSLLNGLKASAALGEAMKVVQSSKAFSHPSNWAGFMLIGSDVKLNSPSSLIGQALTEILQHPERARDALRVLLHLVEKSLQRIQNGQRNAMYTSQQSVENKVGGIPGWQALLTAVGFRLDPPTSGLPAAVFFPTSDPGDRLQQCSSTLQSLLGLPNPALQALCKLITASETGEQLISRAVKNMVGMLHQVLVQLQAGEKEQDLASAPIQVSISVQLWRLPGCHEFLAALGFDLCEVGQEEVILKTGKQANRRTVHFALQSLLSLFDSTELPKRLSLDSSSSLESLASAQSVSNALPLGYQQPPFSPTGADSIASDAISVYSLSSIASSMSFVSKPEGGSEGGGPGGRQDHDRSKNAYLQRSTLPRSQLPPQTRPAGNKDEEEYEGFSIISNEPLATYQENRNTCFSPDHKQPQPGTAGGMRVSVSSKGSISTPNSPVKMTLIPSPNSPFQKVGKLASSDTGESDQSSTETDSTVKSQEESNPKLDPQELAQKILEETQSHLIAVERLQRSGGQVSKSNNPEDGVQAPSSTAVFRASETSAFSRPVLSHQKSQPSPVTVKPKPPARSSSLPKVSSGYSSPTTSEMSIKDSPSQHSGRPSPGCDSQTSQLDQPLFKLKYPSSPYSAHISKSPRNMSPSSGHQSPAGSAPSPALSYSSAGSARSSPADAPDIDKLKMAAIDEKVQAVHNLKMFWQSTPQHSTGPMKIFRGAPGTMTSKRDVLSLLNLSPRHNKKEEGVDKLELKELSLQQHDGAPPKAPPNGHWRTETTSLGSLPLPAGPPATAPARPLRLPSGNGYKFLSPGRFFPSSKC
UniProt Q8TBC4: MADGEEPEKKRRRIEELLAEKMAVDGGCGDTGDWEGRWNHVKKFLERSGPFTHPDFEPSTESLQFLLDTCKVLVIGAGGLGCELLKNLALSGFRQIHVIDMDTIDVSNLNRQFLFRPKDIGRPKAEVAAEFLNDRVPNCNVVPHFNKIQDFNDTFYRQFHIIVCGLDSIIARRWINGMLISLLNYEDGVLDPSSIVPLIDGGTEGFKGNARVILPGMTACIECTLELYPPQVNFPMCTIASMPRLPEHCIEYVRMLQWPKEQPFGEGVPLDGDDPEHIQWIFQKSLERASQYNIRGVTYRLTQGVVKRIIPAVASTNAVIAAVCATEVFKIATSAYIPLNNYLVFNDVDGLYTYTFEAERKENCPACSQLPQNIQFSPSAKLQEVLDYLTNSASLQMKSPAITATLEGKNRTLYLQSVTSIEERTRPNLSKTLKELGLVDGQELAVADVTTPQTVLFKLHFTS
UniProt Q9UNY4, 195-214: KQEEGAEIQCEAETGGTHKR
UniProt Q15631: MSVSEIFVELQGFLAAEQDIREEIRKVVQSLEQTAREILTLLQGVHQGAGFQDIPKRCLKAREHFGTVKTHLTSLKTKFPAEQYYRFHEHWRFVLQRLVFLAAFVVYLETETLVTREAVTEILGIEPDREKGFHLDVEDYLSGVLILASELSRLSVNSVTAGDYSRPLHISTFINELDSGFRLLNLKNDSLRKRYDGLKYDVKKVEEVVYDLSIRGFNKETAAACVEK
UniProt O14562: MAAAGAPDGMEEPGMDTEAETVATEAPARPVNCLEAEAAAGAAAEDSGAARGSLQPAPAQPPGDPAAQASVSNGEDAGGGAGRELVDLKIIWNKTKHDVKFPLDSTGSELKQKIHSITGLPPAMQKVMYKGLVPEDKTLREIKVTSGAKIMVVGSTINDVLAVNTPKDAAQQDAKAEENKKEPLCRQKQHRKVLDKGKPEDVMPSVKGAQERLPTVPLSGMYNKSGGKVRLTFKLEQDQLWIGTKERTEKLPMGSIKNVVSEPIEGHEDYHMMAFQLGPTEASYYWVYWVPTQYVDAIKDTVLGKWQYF
UniProt Q9UJT0, 198-220: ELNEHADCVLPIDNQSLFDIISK
UniProt Q9BSJ2, 715-735: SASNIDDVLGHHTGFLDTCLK
UniProt Q9Y5Z9, 21-40: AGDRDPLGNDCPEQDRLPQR
UniProt O95155, whole entry, looked up: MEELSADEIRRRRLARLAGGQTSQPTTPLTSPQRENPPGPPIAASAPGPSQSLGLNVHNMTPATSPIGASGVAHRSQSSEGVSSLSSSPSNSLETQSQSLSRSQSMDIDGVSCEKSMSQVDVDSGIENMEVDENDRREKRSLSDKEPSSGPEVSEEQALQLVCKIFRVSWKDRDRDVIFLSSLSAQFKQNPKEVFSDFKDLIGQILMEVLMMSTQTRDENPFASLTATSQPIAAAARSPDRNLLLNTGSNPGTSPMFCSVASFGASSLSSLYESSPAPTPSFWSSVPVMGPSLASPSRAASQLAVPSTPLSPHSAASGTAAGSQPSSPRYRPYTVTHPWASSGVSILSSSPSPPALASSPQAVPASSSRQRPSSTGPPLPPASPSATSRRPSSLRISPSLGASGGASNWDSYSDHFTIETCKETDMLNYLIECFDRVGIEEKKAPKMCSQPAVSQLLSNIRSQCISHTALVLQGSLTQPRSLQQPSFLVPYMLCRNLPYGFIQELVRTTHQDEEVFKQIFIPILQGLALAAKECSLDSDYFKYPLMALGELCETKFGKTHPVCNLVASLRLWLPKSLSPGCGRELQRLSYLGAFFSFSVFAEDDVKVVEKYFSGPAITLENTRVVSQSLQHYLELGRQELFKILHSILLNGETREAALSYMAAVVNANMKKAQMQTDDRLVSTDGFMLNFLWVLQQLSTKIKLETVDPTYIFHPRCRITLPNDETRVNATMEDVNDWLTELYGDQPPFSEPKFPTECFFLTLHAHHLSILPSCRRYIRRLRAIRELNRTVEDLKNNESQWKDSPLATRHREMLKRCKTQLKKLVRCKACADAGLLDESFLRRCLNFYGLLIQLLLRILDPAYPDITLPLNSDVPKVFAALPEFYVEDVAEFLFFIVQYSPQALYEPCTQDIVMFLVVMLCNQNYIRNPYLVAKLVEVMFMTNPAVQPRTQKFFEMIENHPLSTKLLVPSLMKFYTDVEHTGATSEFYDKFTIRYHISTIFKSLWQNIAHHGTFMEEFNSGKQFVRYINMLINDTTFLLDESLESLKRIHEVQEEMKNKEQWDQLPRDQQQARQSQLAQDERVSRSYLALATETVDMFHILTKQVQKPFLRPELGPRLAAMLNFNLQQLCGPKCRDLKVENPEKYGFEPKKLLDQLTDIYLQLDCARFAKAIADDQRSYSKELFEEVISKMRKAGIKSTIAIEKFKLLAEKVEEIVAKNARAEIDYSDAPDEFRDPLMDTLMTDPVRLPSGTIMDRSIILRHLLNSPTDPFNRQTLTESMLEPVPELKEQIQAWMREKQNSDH
UniProt Q7Z2T5: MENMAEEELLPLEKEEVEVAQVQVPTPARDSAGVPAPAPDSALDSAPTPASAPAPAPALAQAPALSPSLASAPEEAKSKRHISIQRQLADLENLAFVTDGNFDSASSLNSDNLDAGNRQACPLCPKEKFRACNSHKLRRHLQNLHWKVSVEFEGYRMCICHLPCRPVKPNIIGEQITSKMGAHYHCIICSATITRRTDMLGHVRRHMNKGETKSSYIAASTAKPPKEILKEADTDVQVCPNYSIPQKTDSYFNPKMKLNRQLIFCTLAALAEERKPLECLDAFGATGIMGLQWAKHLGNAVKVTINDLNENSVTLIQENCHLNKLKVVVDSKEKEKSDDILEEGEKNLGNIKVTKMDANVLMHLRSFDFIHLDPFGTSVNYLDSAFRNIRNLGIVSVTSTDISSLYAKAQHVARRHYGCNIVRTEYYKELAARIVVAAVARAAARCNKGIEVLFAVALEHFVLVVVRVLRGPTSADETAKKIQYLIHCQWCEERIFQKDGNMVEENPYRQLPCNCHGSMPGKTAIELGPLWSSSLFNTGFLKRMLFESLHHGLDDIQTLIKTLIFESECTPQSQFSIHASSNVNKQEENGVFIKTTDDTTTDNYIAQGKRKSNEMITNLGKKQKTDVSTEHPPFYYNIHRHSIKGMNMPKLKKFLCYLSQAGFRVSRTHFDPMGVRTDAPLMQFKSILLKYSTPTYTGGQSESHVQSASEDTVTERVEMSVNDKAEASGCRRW
UniProt O14530: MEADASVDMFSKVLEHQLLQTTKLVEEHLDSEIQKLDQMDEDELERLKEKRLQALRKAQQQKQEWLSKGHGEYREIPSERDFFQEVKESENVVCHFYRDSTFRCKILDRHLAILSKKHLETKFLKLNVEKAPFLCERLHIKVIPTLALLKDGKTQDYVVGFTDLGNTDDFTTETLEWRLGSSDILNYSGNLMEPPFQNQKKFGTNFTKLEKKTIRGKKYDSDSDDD

The other results are listed elsewhere or left out. The data scatter; read single values as rough.

Take TXNRD2 C500 (UniProt Q9NNW7): the “log2 mean competition ratio” value was found to be 0.173 (50 µM) and 0.167 (200 µM).
For TSC1 C259 (UniProt Q92574), in that order: -0.323 and 0.0138.
As for TRUB2 C252 (UniProt O95900), the “log2 mean competition ratio” value runs as follows: (50 µM) 0.11; (200 µM) -0.11.
For TTC9 C67, in that order: 0.129 and -0.194.
For TRMT2A C365 (UniProt Q8IZ69), in that order: 0.211 and 0.018.
For TTC28 C274 (UniProt Q96AY4) the same measures were -0.105 and 0.372.
Regarding UBA3 C139 (UniProt Q8TBC4), the “log2 mean competition ratio” value (50 µM) is -0.709 and the “log2 mean competition ratio” value (200 µM) was -0.487.
For TYW1B;TYW1 C169;(C215), in that order: 0.094 and 0.301.
For TTC28 C726 (UniProt Q96AY4), the “log2 mean competition ratio” value is 0.265 (50 µM) and 0.218 (200 µM).
For TSHZ1 C363, in that order: 0.206 and -0.646.
On to TTF2 C204 (UniProt Q9UNY4), for which the “log2 mean competition ratio” value runs as follows: (50 µM) 0.19; (200 µM) -0.103.
As to TSN C225 (UniProt Q15631), the “log2 mean competition ratio” value was 0.255 (50 µM) and -0.000873 (200 µM).
As to UBE2O C598, the “log2 mean competition ratio” value (50 µM) is -0.378 and the “log2 mean competition ratio” value (200 µM) was -0.0738.
For UBFD1 C185 (UniProt O14562), in that order: -0.165 and 0.0594.
Regarding TUBE1 C205 (UniProt Q9UJT0), the “log2 mean competition ratio” value (50 µM) was -0.805 and the “log2 mean competition ratio” value (200 µM) is -0.116.
As for TUBGCP2 C733 (UniProt Q9BSJ2), the “log2 mean competition ratio” value came to 0.158 (50 µM) and 0.314 (200 µM).
Take UBR4 C3279 (UniProt Q5T4S7): the “log2 mean competition ratio” value (50 µM) was determined as 0.0464 and the “log2 mean competition ratio” value (200 µM) is -0.146.
For UBIAD1 C31 (UniProt Q9Y5Z9), in that order: -0.818 and -0.0585.
With UBE4B C581 (UniProt O95155), the “log2 mean competition ratio” value (50 µM) amounted to 0.421 and the “log2 mean competition ratio” value (200 µM) was -0.0604.
For TRMT1L C419 (UniProt Q7Z2T5) the same measures were -0.058 and -0.143.
For UBA6 C17, in that order: 0.512 and -0.229.
For the target TUFM C127 (UniProt P49411), the “log2 mean competition ratio” value reads like this: (50 µM) 0.45; (200 µM) -0.293.
For TXNDC9 C135 (UniProt O14530), in that order: -0.00895 and -0.0844.

(Values after the supplement of paper PMC11732987, “Enantioselective OTUD7B fragment discovery through chemoproteomics screening and high-throughput optimisation” (Communications Chemistry, 2025).)
